In article PMC10326439:
Results are given in words; binding and its absence hold for the method and conditions named. In cells and extracts the contact can be indirect. Some binding calls cover weakened binding; strength is not graded here.

Amino acid sequences for entries named in this document (tags omitted). Residues count along the entry.
UniProt P54761, residues 16-987: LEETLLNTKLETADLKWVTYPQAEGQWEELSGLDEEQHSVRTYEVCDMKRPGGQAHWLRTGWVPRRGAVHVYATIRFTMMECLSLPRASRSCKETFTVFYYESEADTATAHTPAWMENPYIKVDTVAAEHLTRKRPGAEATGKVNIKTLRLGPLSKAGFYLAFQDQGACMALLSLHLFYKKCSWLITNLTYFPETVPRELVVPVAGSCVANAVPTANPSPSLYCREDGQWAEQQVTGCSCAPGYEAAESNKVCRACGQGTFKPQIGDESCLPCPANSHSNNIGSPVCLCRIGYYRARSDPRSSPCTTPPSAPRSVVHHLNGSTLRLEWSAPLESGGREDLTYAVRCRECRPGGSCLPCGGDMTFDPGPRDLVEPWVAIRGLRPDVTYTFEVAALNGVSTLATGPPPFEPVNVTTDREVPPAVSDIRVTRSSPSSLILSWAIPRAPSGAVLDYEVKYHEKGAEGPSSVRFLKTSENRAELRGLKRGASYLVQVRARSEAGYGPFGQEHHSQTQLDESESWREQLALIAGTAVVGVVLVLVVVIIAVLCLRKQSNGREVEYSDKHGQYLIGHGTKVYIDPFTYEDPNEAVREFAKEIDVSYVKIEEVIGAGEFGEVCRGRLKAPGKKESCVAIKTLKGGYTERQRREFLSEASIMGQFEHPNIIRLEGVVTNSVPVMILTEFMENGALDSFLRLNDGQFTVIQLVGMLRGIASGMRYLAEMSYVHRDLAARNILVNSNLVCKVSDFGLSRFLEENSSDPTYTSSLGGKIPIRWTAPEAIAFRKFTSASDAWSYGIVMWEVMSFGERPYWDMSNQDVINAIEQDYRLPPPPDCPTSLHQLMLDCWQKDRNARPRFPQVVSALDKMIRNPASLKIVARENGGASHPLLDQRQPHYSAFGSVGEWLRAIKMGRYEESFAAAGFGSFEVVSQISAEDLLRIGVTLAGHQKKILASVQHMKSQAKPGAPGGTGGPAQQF
UniProt P52800, residues 29-336: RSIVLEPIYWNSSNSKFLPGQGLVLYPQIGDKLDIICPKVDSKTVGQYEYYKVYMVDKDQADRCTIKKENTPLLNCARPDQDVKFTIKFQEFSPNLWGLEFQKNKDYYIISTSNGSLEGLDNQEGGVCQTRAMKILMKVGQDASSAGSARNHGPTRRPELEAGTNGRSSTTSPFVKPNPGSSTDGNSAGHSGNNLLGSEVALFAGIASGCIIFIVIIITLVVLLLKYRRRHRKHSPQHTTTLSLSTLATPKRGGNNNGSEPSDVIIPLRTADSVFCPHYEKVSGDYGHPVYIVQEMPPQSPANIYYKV

Molecular target: EphB4 (mouse (endogenous in primary C57BL/6 BMSC-derived osteoblasts)) (UniProt P54761)
Assay: co-IP; immunoprecipitation with anti-EphB4 antibody from the osteoblast-osteoclast co-culture system, 7 days in osteogenic medium, with or without LIPUS stimulation; EphrinB2 detected in the precipitate

Question: How did the binding turn out when “EphrinB2 (from UniProt P52800 29-336) (ligand)” was run?
Answer: Its binding is “binds”.
